A: 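Whole-parasite assay of Trypanosoma brucei over 72 hours; the read-out is not stated. Compounds at 30 µM. Higher reads as stronger inhibition (inferred: compounds with an IC50 in retests scored well above the rest). Values scatter widely below zero; nearly all retest evidence comes from the higher of the two concentrations used. Of about 64,000 compounds tested this way, about 940 (1.5%) reached 50% or more in at least one test.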
B: 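Enzyme assay of the cytosolic lysyl-tRNA synthetase in 384-well plates, read by luminescence. Target: Lysine-tRNA ligase, Plasmodium falciparum 3D7 (UniProt Q8IDJ8). Compounds at 30 µM. Direction is inferred from only a few compounds that gave an IC50; most scored high, so higher reads as stronger inhibition. Size under these conditions: about 69,000 compounds, about 49 of them at 50% or above in at least one test.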
C: 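Histidine-tRNA ligase, Leishmania infantum (UniProt A4I591). Enzyme assay of histidyl-tRNA synthetase; the read-out is not stated. Tested at 30 µM. The record gives no direction; compounds that gave an IC50 in retests scored well above the rest, so higher reads as stronger inhibition. The assay is labelled LdHisRS but filed under L. infantum. About 69,000 compounds were tested under these conditions; 0.6% (about 410) showed 50% or more at least once.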
D: 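Assay of Toxoplasma gondii numbers, read through their beta-galactosidase reporter with a colour substrate. Concentration: 10 µM. The record gives no direction; the compounds picked for IC50 retests had high values, so higher reads as fewer parasites. Of about 67,000 compounds tested this way, about 260 (0.38%) reached 50% or more in at least one test.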

The chains behind the UniProt entries cited, without tags or fusion partners. Residues count along the entry.
UniProt Q8IDJ8, 1-583: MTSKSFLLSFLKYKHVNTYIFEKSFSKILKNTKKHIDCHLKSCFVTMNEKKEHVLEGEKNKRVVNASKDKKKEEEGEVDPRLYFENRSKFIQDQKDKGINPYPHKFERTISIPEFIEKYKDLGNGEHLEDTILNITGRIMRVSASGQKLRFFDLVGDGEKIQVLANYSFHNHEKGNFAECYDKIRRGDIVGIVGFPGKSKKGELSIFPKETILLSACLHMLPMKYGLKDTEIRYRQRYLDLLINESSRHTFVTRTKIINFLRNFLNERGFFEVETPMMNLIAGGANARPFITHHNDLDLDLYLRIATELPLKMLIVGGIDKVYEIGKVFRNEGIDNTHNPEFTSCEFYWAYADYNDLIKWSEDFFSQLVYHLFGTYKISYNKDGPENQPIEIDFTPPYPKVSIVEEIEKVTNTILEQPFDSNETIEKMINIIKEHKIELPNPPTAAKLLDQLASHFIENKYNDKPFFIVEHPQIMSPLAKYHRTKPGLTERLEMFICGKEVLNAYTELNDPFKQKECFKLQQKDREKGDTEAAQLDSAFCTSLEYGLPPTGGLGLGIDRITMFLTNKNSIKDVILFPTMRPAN
UniProt A4I591, 1-473: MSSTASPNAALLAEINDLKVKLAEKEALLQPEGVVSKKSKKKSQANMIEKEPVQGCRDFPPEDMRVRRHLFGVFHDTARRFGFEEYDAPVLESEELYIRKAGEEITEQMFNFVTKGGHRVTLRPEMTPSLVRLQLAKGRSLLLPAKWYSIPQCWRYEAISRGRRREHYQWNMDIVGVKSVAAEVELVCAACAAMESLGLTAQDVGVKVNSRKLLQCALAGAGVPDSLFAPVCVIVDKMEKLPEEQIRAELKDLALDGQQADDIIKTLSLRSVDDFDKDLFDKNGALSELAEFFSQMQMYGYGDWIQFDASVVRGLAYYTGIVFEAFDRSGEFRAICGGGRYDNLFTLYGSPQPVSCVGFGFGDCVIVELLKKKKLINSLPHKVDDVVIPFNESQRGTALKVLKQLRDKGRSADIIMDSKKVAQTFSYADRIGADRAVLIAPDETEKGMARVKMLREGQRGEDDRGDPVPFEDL

The filed quantity is “Percent Effect” (%). The controls that fix the scale are not given in the record; negative values are as filed. Compounds were drawn at random from those tested, without regard to their results. A dash means the value is not listed here; it may have been measured.

{"compound": "COc1ccc(CNC(Cc2cccs2)c2nc(C)c(C)s2)cc1OC.Cl", "stereo": "centres unmarked", "A": -33.38, "D": 8.243}
{"compound": "CCS(=O)(=O)NC[C@]12COC[C@H]1CN(Cc1cc(C)on1)C2", "B": 0.7335, "C": 6.015}
{"compound": "CN1CC[C@H](c2nnc(-c3cncn3C)o2)C1", "A": -18.19, "B": 4.582, "C": 13.51, "D": -6.371}
{"compound": "CN1CCCC1c1ccnc(-c2ccccn2)n1", "stereo": "centres unmarked", "B": 3.066, "C": -1.408}
{"compound": "O=S(=O)(CC1CC1)c1ncc(CN2CCSCC2)n1CC1CCCO1", "stereo": "centres unmarked", "A": -20.73, "B": 6.5, "C": -3.03, "D": -11.21}
{"compound": "c1cncc(-c2ccc3c(c2)C2(CC3)CCN(c3nncs3)CC2)c1", "B": -2.252, "C": 53.33}
{"compound": "COc1ccc(-c2nc(CN3CCCC3Cn3cccn3)no2)cc1", "stereo": "centres unmarked", "A": 30.96, "B": 3.489, "C": 19.18, "D": 2.435}
{"compound": "CCOc1ncccc1NC(=O)NC1CCN(c2ncccn2)CC1", "B": 0.4422, "C": 13.68, "D": 18.26}
{"compound": "[H][C@]12CCC[C@@]1(COc1cccnc1)CN(C(=O)Cc1ccco1)C2", "A": -47.01, "D": 10.1}
{"compound": "CN(C)C(=O)N1CCC(c2nc3ccc(N4CCCC4)cn3n2)CC1", "B": 10.3, "C": 21.62}
{"compound": "Cc1cc(=O)n(C)cc1NC(=O)Cc1cccc(F)c1", "A": -12.5, "B": 19.81, "C": 68.49, "D": 12.28}
{"compound": "CNC(=O)CN1CCOCC12CCN(C(=O)c1ccccc1)CC2.O=C(O)C(F)(F)F", "A": -3.149, "D": -11.35}
{"compound": "Cc1ccc(C2CN(CCS(=O)(=O)C(C)C)CCO2)c(C)c1", "stereo": "centres unmarked", "B": -0.3789, "C": 2.083, "D": 20.53}
{"compound": "O=C(NCC1CCOC1)c1ccc(OCC(F)(F)F)nc1", "stereo": "centres unmarked", "A": 30.11, "B": 0.8205, "C": -12.77, "D": -9.098}
{"compound": "CC(N)Cc1ccccc1Sc1ccccc1.O=C(O)/C=C\\C(=O)O", "stereo": "centres unmarked", "A": 99.41, "D": 26.22}
{"compound": "COc1ccc(C)cc1C1(CNc2cncc(Cl)n2)CCOCC1", "A": 6.733, "B": 4.283, "C": 21.92, "D": -5.375}
{"compound": "COC(=O)c1ccc(Cl)c(CN(C)Cc2ncnn2C)c1", "A": 3.323, "B": 10.83, "C": 8.824, "D": -3.937}
{"compound": "CC(NC(=O)NC1CCN(Cc2ccccc2)CC1)c1nncn1C", "stereo": "centres unmarked", "A": -92.19, "B": 9.692, "C": 19.74, "D": 1.902}
{"compound": "O=C([C@H]1C[C@H]2OCC[C@H]2N(C(=O)c2ccncc2)C1)N1CCCC1", "B": 10, "C": 22.86}
{"compound": "O[C@H]1CCN(Cc2ccoc2)[C@H]1Cc1cccnc1", "B": -1.637, "C": 1.887}
{"compound": "N#Cc1ccc(NCCCOCC2CCCO2)c(F)c1", "stereo": "centres unmarked", "A": -30.6, "B": -0.1017, "C": 4.712, "D": -1.311}
{"compound": "Cn1cnc(-c2ccc(F)cc2)c1NC(=O)CCNC(=O)C(C)(C)C", "A": 12.38, "B": 0.946, "C": 14.29, "D": 0.413}
{"compound": "CCN(CC)S(=O)(=O)N1C[C@@H](O)[C@H](Oc2cccc(F)c2)C1", "A": -18.48, "B": -0.848, "C": 11.43, "D": -5.078}
{"compound": "CNC(=O)C(C)(C)N1CCC[C@H]1C(=O)NCC1CC1", "A": -64.25, "B": 1.26, "C": 5.556, "D": -8.366}
{"compound": "CCNc1nc(C)c(C(=O)N(C)Cc2nc(-c3ccncc3)no2)s1", "A": -15.71, "B": 5.503, "C": 3.226, "D": -39.94}
{"compound": "Cc1cc(-c2nc(-c3cccc(CN4CCOCC4)c3)no2)no1", "A": -54.81, "B": 3.97, "C": 10.96, "D": 8.772}
{"compound": "CN(CCCOc1ccc(F)cc1)Cc1nc2c(cnn2C)c(=O)[nH]1", "A": 47.73, "B": -0.07181, "C": 4.545, "D": -9.605}
{"compound": "CC1CCN(S(=O)(=O)N2CCc3sccc3C2)CC1", "A": -15.18, "B": 5.321, "C": 10.64, "D": -11.88}
{"compound": "CCN(CC)CCn1cnc(-c2ccccc2)c1-c1ncc[nH]1", "B": 5.162, "C": 12.5, "D": -7.771}
{"compound": "Cn1ccc2c(C(=O)NC3CN4CCC3CC4)cccc21", "stereo": "centres unmarked", "A": -26.79, "B": 7.104, "C": 2.632, "D": -11.91}
{"compound": "Cc1ccc(N2CCCC3(CCN(C(=O)NC4CCCC4)C3)C2)nn1", "stereo": "centres unmarked", "A": -31.47, "B": 3.494, "C": 20, "D": -20.99}

The last 3 entries again:

Compound,A,B,C,D
CCN(CC)CCn1cnc(-c2ccccc2)c1-c1ncc[nH]1,-,5.162,12.5,-7.771
Cn1ccc2c(C(=O)NC3CN4CCC3CC4)cccc21 (centres unmarked),-26.79,7.104,2.632,-11.91
Cc1ccc(N2CCCC3(CCN(C(=O)NC4CCCC4)C3)C2)nn1 (centres unmarked),-31.47,3.494,20,-20.99

From ChEMBL document CHEMBL3988442, “University of Dundee, Small-Polar-MMV Screening Library” (2021).